Screening data

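Uptake of anthrax lethal toxin into cultured cells, read by FRET (460/530 nm ratio) and reported from the 460 nm channel; the cell line is not named here.
Each compound was tested as a concentration series from about 0.0005 to 40 µM.
The number is the fitted AC50 of the 460 nm signal alone; lower values mean a more potent effect. A falling signal goes with compounds filed as inhibitors or cytotoxic, a rising one with activators or fluorescent compounds (inferred from the filed classes).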

Values are in µM.
Common to all entries: measured here: 460 nm channel.
This is a side read-out of the assay, for part of the compounds, not drawn at random.
Potencies fitted to partial, single-point or poorly fitting curves are rough.
The first word of each remark tells which way the curve ran; it can be opposite to the aim of the assay.

structure,AC50 (µM),curve as filed
O=C(NCc1ccco1)c1cc(S(=O)(=O)N2CCOCC2)ccc1Cl,1.585,"rising, full curve, poor fit"
COC(=O)[C@@]1(Cc2ccc(F)cc2)[C@H]2c3cc(C(=O)N(C)C)n(Cc4ccc(S(C)(=O)=O)cc4)c3C[C@H]2CN1C(=O)c1ccccc1,10,"rising, partial curve"
O=C(CSc1nnc(-c2cnccn2)n1Cc1ccco1)c1ccc(Cl)c(Cl)c1,5.012,"rising, partial curve"
O=C(c1csnn1)N1CCC2(CC1)CCN(c1ccncc1)CC2,3.162,"falling, single point"
N#CCCN1CCN(C(=S)c2ccc(-c3cccc(Cl)c3)o2)CC1,19.95,"falling, partial curve"
O=C1CC(c2cccc(Br)c2)C2=C(CCCC2=O)N1 (stereo unspecified),0.3981,"falling, full curve"
c1ccc(Nc2nc(-c3ccoc3)nc3ccccc23)cc1,0.007943,"falling, full curve"
C[C@@H](C(=O)Nc1ccc2ccccc2c1)[C@H]1C[C@]1(C)[C@H](NS(=O)(=O)c1ccc2ccccc2c1)c1ccccc1,31.62,"falling, single point"
CC(=O)c1ccc(NC(=O)N2CCN(c3cccc(Cl)c3)CC2)cc1,0.631,"falling, full curve"
CCN(CC)c1ccc2oc(=O)c(C)nc2c1,5.012,"falling, single point"
CCCC1=C(C(=O)OCC)C2(C(=O)Nc3ccc(C)cc32)C(C#N)=C(N)O1 (stereo unspecified),25.12,"rising, single point"
O=c1c2c3c(sc2n(CCN2CCCC2)c(=O)n1Cc1ccco1)CCCCC3,10,"rising, single point"
O=C(Cc1ccccc1)Nc1ccc(N2CCOCC2)cc1N1CCOCC1,5.012,"rising, single point"
CN(Cc1ccco1)c1ncnc2ccc(-c3ccc4c(c3)OCO4)cc12,15.85,"falling, single point"
COc1ccc(NC2=NC3(CCCCC3)N=C(N)N2)cc1,12.59,"rising, single point"
CCN(CC)c1ccc(N2C(=O)c3ccccc3C2=O)cc1,0.05012,"falling, full curve"
COC(=O)c1cc(OC)c(OC)cc1NC(=O)c1ccc(Br)o1,0.3981,"falling, partial curve"
Nc1nc(N)c2nc(-c3ccccc3)c(N)nc2n1,12.59,"rising, partial curve"
O=c1ccc2cc(O[C@H]3O[C@@H](CO)[C@@H](O)[C@@H](O)[C@@H]3O)c(O)cc2o1,1.585,"rising, partial curve"
CCCCCCc1c(C[C@H](N)C(=O)O)o[nH]c1=O,31.62,"falling, single point"
N[C@@H](C(=O)O)c1ccc(C(=O)O)c(C(=O)O)c1,0.001259,"rising, full curve, poor fit"
COc1ccccc1N1CCN(C(=O)c2cc3c(-c4ccc(Cl)cc4)nn(C)c3s2)CC1,12.59,"falling, partial curve"
CCOC(=O)Cc1csc(SCC(=O)N2CCN(c3ccc(OC)cc3)CC2)n1,12.59,"rising, single point"
CCOC(=O)C1CCN(C(c2cccc(F)c2)c2sc3nc(C)nn3c2O)CC1 (stereo unspecified),3.981,"falling, full curve"
N#CC1=C2SCN(c3ccccc3)CN2C(=O)CC1c1c(Cl)cccc1Cl (stereo unspecified),25.12,"falling, single point"
CC(=O)[C@H]1[C@H]2[C@H](C(=O)[C@@H]3OC[C@H]2O3)[C@@H]2c3ccccc3C=CN12,12.59,"falling, single point"
Cc1ccc(NC(=O)CC(O)(C(F)(F)F)C(F)(F)F)c(Br)c1,12.59,"falling, single point"
COc1ccccc1C(=O)Nc1ccccc1C(=O)N1CCCC1,0.0631,"falling, full curve, poor fit"
CC(C)Cc1nc2oc3c(N4CCN(C)CC4)ncnc3c2c2c1CCCC2,1.585,"falling, partial curve, poor fit"
COc1cccc(-n2nnnc2SCC(=O)c2ccc(NC(C)=O)cc2)c1,5.012,"falling, full curve, poor fit"
CC(C)OC(=O)CSc1nnc(CNc2nc(-c3ccccc3)cs2)n1C,15.85,"rising, partial curve"
COC(=O)C1=CO[C@@H](C)[C@H]2CN3CCc4c([nH]c5ccccc45)[C@@H]3C[C@H]12,0.0631,"rising, full curve"

For reference, 2 entries once more:

structure,AC50 (µM),curve as filed
CN(Cc1ccco1)c1ncnc2ccc(-c3ccc4c(c3)OCO4)cc12,15.85,"falling, single point"
N[C@@H](C(=O)O)c1ccc(C(=O)O)c(C(=O)O)c1,0.001259,"rising, full curve, poor fit"

Data taken from PubChem BioAssay AID912, deposited by NCATS (2007).